# Measured values from PubChem BioAssay AID1671190 (National Center for Advancing Translational Sciences (NCATS), 2021).
# Sequences of proteins named here, by UniProt entry; tags and fusion partners are left off.
# UniProt P18054, whole entry, looked up: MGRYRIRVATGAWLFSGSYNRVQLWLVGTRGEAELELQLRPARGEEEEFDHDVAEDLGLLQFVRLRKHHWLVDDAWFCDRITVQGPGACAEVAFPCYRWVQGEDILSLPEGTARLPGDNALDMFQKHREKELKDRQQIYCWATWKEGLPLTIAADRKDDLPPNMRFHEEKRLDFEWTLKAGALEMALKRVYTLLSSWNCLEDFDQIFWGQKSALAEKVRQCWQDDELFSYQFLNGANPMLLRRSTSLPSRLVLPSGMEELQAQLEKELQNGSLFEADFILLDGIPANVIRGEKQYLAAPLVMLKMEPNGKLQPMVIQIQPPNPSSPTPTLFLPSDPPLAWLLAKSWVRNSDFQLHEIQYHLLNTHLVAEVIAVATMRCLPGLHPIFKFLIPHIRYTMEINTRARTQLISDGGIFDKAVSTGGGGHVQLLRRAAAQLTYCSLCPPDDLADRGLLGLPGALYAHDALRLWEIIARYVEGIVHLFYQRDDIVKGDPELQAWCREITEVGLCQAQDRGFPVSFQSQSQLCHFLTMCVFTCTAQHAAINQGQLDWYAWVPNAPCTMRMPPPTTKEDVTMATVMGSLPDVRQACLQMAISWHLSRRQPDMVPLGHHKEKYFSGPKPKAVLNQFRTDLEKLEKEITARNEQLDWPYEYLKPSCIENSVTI
# “And” between values parts separate entries of the source, which are not always exact repeats. Equal entries are not always repeated. Among all 580,000 compounds or so, about 6,100 (1.1%) were called active. Inconclusive results, whose numbers are uncertain, are shown with a selection of clear calls. Calls come from the whole dose curve; as a rule, active = well fitted inhibition curve with a large enough effect; inconclusive = small, poorly fitted or top-dose-only effect, or another doubt; inactive = no such curve, though single readings can be large or run the other way. Where the call is inconclusive, the potency comes from a doubtful curve fit. Some compounds were tested as several samples or in several runs, with calls that do not always agree.
# Target: Polyunsaturated fatty acid lipoxygenase ALOX12 (Homo sapiens) (UniProt P18054)
# Experiment: Primary qHTS assay for inhibitors of human arachidonate 12S-lipoxygenase (ALOX12): Round 2
# Conditions: purified 12hLO, xylenol orange hydroperoxide absorbance; activity change, negative = inhibition: at 108 µM (top of the series) unless noted
# Summary of the method: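 Purified human 12hLO (150 nM final) in 25 mM Hepes, 0.01% Triton X-100, pH 7.0 was preincubated 15 min at room temperature with compound. Then 40 uM arachidonic acid was added, 30 min. Hydroperoxide was read by Fe-XO absorbance ratio 573/405 nm.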
# % is set by controls: 0 for no effect and ±100 for the full control effect; potency is the fitted concentration of half-maximal effect.
SMILES,Potency,"activity change, negative = inhibition"
COc1ccc(/C=C/c2ccc3cccc(O)c3n2)c(OC)c1OC,"inconclusive: 50.1 µM [inhibitor, partial curve, poor fit]",
O=C(NCc1ccccc1)C1=C[C@H](c2ccc(Br)cc2)C[C@H](OCc2ccc(CO)cc2)O1,"inconclusive: 7.94 µM [inhibitor, full curve]",
COc1ccc(N(C(=O)c2snc(C(N)=O)c2N)C(C(=O)NC2CCCCC2)c2ccc(C)o2)c(OC)c1 (configuration not stated),inactive,
CN(CC(=O)NC1(C#N)CCCCC1)Cc1ccc(C(F)(F)F)cc1,active: 28.2 µM,
COc1ccc(CN2CCN(C(=O)c3cccc4ccccc34)CC2)cc1Br,active: 0.562 µM,
COc1cccc(C(=O)N2CCN(Cc3cccc(F)c3)CC2)c1,"inconclusive: 0.316 µM [inhibitor, full curve]",
COc1ccc(C(=O)N(CN2CCCC2=O)c2ccccc2OC)cc1OC,inactive,
O=C1C(n2ccc3ccccc32)c2ccccc2N1Cc1ccc(C(F)(F)F)cc1 (configuration not stated),active: 31.6 µM,
CNC(=S)N/N=C/c1ccc(N2CCOCC2)s1,"inconclusive: 44.7 µM [inhibitor, partial curve]",
COc1cc(OC)cc(C(=O)Nc2ccc3nc4c(c(Nc5ccc(OC)c(OC)c5)c3c2)CCCC4)c1,"inconclusive: 50.1 µM [inhibitor, partial curve, poor fit]",
O=S(=O)(Nc1ccccc1Sc1nncs1)C1=Cc2ccccc2CC1,"inconclusive: 112 µM [inhibitor, partial curve, poor fit]",
CSc1sc2ccccc2[n+]1CCCS(=O)(=O)[O-],"inconclusive: 8.91 µM [inhibitor, full curve]",
O=C(CCl)NC1(C(=O)O)CCCC1,"inconclusive: 22.4 µM [inhibitor, full curve, poor fit]",
CN(C(=O)CSc1nnnn1-c1ccccc1)c1ccccc1C(=O)NCc1ccco1,inactive,
COc1cc(/C=C/C(=O)OC[C@H]2O[C@H](OC3(CO)OC(CO)C(O)C3O)[C@H](O)[C@@H](O)[C@@H]2O)ccc1O (some centres not stated),inactive,
Oc1ccccc1/C=N/N1CCCCC1,inactive,
CC1CCN(c2ccc(/C=C(\C#N)c3nn(-c4ccccc4)c(N)c3C#N)cc2[N+](=O)[O-])CC1,inactive,
CCN1CCc2c(sc(NC(=O)c3ccc(S(=O)(=O)N(C)C4CCCCC4)cc3)c2C(N)=O)C1,"inconclusive: 100 µM [inhibitor, partial curve, poor fit]",
Cc1ccc(OCc2ccc(C(=O)N3CCOCC3)cc2)cc1C,"inconclusive: 44.7 µM [inhibitor, partial curve, poor fit]",
CCc1ccc(CNC(=O)c2cccn3c(=O)c4ccccc4nc23)cc1,inactive,
COc1ccc(Br)cc1[C@H]1[C@@H]2C=CCC[C@@]2(C)C(=O)N1Cc1ccccc1,"inconclusive: 31.6 µM [inhibitor, partial curve]",

# Reformatted as tab-separated lines: 3 of the compounds above.
SMILES	Potency	activity change, negative = inhibition
CNC(=S)N/N=C/c1ccc(N2CCOCC2)s1	inconclusive: 44.7 µM [inhibitor, partial curve]	
CSc1sc2ccccc2[n+]1CCCS(=O)(=O)[O-]	inconclusive: 8.91 µM [inhibitor, full curve]	
Oc1ccccc1/C=N/N1CCCCC1	inactive	

# Going on with the list.

SMILES,Potency,"activity change, negative = inhibition"
COC(=O)c1cc2sccc2n1Cc1ccc(C)cc1,inactive,
CCCCC(=O)Nc1ccc(-c2cn3ccc(C)nc3n2)cc1,inactive,
COc1cc(F)ccc1-c1cnc2n[nH]c(-c3sccc3C)c2n1,"inconclusive: 50.1 µM [inhibitor, partial curve, poor fit]",
CCOC(=O)C(Sc1nn(C)c(=S)s1)C(C)=O (configuration not stated),"inconclusive: 6.31 µM [inhibitor, full curve, poor fit]",
COc1ccc(CC(=O)Nc2ncc([N+](=O)[O-])s2)cc1OC,active: 35.5 µM,
CC(c1ccccc1)C1NC(C(=O)O)CS1 (configuration not stated),"inconclusive: 2.51 µM [inhibitor, full curve, poor fit]",
Cc1ccc2nc(-c3ccc(CN4CCC(n5cc(-c6ccccc6)[nH]c5=O)CC4)cc3)c(-c3ccccc3)nc2c1,"inconclusive: 50.1 µM [inhibitor, partial curve, poor fit]",
CC(C)Cn1c(Cc2ccccc2)n[nH]c1=S,"inconclusive: 50.1 µM [inhibitor, partial curve, poor fit]",
Cc1cccc(C(C)C)c1NC(=O)CCc1ncc(-c2ccc(F)cc2F)o1,,inconclusive: -31.6% [inhibitor]
Cc1cc(C)nc(NS(=O)(=O)c2ccc(N/C=C/C(=O)c3ccc(Cl)cc3)cc2)n1,"inconclusive: 50.1 µM [inhibitor, partial curve, poor fit]",
CC(=O)Nc1ccc(Nc2nc(-c3sc(C)nc3C)cs2)cc1,active: 15.8 µM,
CN1CCN(c2ccccc2NC(=O)c2ccc(-c3cccc([N+](=O)[O-])c3)o2)CC1,inactive,
CSc1ccc(CNC(=O)c2cccc(-c3ccc(S(=O)(=O)N4CCCCC4)cc3)c2)cc1,"inconclusive: 126 µM [inhibitor, single point]",
Cc1cccc(C)c1Nc1c(-c2ccc(N3CCOCC3)cc2)nc2ncccn12,"inconclusive: 100 µM [inhibitor, single point] and inconclusive: 70.8 µM [inhibitor, partial curve, poor fit]",
CC(=O)c1ccc(NS(=O)(=O)c2ccc(C(C)(C)C)cc2)cc1,inactive,
O=C(C1=C[C@@H](c2csc3ccccc23)C[C@@H](OCCCCO)O1)N1CCN(Cc2ccc3c(c2)OCO3)CC1,inactive,
Cc1cccc(NC(=O)c2nc[nH]c2C(=O)N[C@@H](CC(C)C)C(=O)OC(C)(C)C)c1,"inconclusive: 79.4 µM [inhibitor, partial curve, poor fit]",
COc1ccc(C2(C(=O)N(C)Cc3ccc(OC(F)(F)F)cc3)CCOCC2)cc1,"inconclusive: 8.91 µM [inhibitor, full curve, poor fit]",
COc1ccccc1CNC(=O)Cn1c(-c2ccc(F)cc2)cc(C(C)=O)c1C,"inconclusive: 112 µM [inhibitor, partial curve, poor fit]",
CCN(CC)CCN(C(=O)c1ccco1)c1nc2c(C)c(C)ccc2s1,"inconclusive: 50.1 µM [inhibitor, partial curve, poor fit]",
CSc1nsc(SC)c1NC(=O)OCCc1ccccn1,inactive,
